The values below come from US20190127468A1.

In the assay the target is mouse CTLA4-Fc fusion protein (mouse) (UniProt P09793). Put plainly: ELISA, plate-coated mCTLA4-Fc, biotinylated B7-1 Fc. In general terms: ELISA stands for enzyme-linked immunosorbent assay.

No constants are given. Whether binding was seen depends on the method and setting. Some entries that bind do so weakly or less than the wild type.

As for “human B7-1 Fc fusion protein (from UniProt P33681 35-242)”, the binding entry was “binds”.
